We go through 107 sequences from PubChem BioAssay AID1508600 (Functional Genomics Laboratory (NCATS/FGL), 2020).

The whole screen tested about 53,000 sequences, of which about 3,700 (7%) were called active.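 Rule for the calls: active = gene knockdowns whose robust z-score for IL-1 alpha signal is at least 2 or at most -2, so actives lie on both sides; inactive = the rest.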 Some of the results follow.

The assay can be described thus: Components of the Cytosolic LPS Sensing Pathway: Gene Identification via Genome-wide siRNA Screen. Conditions: RAW264.7 macrophages, IL-1a HTRF, actives lie on both sides, screened at 100 nM (by protocol), cells primed 5 h with Pam3CSK4 first. An excerpt: Non-canonical inflammasome activation by cytosolic LPS is a critical component of the host response to Gram-negative bacterial infection, however we lack a comprehensive understanding of the cellular processes that control this pathway. Here we describe a genome-wide siRNA screen to identify genes regulating the mouse macrophage IL-1 alpha response to cytosolic LPS.
RAW264.7 cells were maintained in complete DMEM media, comprising DMEM with 4.5 g/L glucose, 10% FBS (Gemini Bio-Products, West Sacramento, CA), 2 mM Glutamine (Lonza) and 20 mM HEPES (Lonza), hereafter complete DMEM.
The RNAi screen was conducted in 384-well format using the Ambion Silencer Mouse Genome siRNA Library (#4391425), which consists of three unique, nonoverlapping, nonpooled siRNAs for each of 17,000 gene targets. siRNA reagents ([…]) were stamped into 384-well white flat-bottom microplates (Corning, 3570) using a Velocity11 VPrep liquid handling system (Agilent) integrated into a BioCel robotic platform (Agilent) in columns 1-22, leaving columns 23-24 empty for negative (Ambion, Negative control #1) and positive (mouse Casp4) controls, respectively. The median value of each plate's negative control column was used to normalize sample wells, and the positive control was used to assess transfection efficiency and assay performance.
Lipofectamine RNAiMAX Transfection Reagent ([…]; Invitrogen) was added in […] serum-free, antibiotic-free media to plate wells using a Thermo Scientific Matrix WellMate and Microplate Stacker. Plates were incubated for 45 min at room temperature to allow for the sufficient formation of siRNA-lipid complexes. Cells were seeded at a density of 1x10^4 cells per well in 20 microL media containing 20% (vol/vol) FBS without antibiotics. The final concentration of siRNA in each well was 100 nM. Cells were cultured for 48h at 37 degrees C in 5% CO2 before addition of […] of TLR ligand Pam3CSK4 for 5 hours. The medium was then removed, replaced with […] growth media and cell were transfected with […] of LipidA and TransIT-TKO (Mirus) for 24 hour. At the end of the LipidA treatment, […] of supernatant was transferred to a 384 Greiner Bio-one non-binding low volume plate and […] of IL-1a HTRF reagent (Cisbio, 62MIL1APEH) was added and incubated at room temperature overnight. The plates were read on an EnVision plate reader (PerkinElmer). Cell viability was measured by adding 20ul Cell Titer Glo to the original plate and running a luminescence read on the EnVision. The quantified IL-1a signal for each siRNA gene-targeted well was divided by the median of the negative control wells and multiplied by 100 to achieve a negative control normalized value for each well/siRNA. This normalized value was then used to generate a robust z-score by first taking the log of each value and then by subtracting the median and dividing by the […].
With CUCGCUAGAGAAAGACAGATT against Olfr111, the z-score was inactive: 0.562.

With GGGUUCGAUGUUGAAAAAGTT against Lzic, the z-score is inactive: -0.23.

As for GCUCAUACCUAUCUCAAGGTT against Tnfsf9, the z-score is inactive: 0.365.

Consider GGCCGUGUCGUACACUAUGTT against Nyap1, for which the z-score was inactive: 0.937.

Consider GCAGAUGGCACAAUAUGAATT against Ppy, for which the z-score was inactive: -0.738.

Turning to GCAACCGCGUCACAUUGAATT against Bicc1, the z-score is inactive: 0.655.

For the sequence GGAUCUAUGACAAAAGAAGTT against Snx5, the z-score is inactive: -0.199.

Consider GGUGCUUGGGAAUUUUGAUTT against Gpsm2, for which the z-score is active: 2.31.

As for GGCUCUUCAACCUCUUACUTT against Ddost, the z-score is inactive: -1.49.

In the case of GCAUUCAACUCAGAUCUCUTT against Fat3, the z-score is inactive: -0.536.

In the case of CCAGAACUAGCAAUAAAUATT against Noxa1, the z-score is inactive: -0.0513.

As to GGCAAUAUGAAGGAGGUUUTT against Ckm, the z-score was inactive: 1.9.

On to GGUUUCUUAGAUUAGCUAGTT against Map3k12, for which the z-score is inactive: 0.445.

GGUGGUUGGUACCUACAAUTT against Ghdc: the z-score is inactive: 1.37.

On to CGCCUCAUCAUCUCGAUUCTT against Cnga3, for which the z-score was inactive: -1.63.

Consider GGUCAUCAGCUUGUAACCATT against Mmadhc, for which the z-score was inactive: -1.37.

As to GCAAGCUUAGUGAAACUCUTT against Sdr42e1, the z-score was inactive: 0.395.

Take “GCAACACAAACACUGGCUATT against D930020B18Rik”: the z-score was inactive: -1.57.

Take GGCUGUAUUUGGACAAAGCTT against Nxt2: the z-score was inactive: 1.42.

Consider GCAAAACAGAAUCAUCCUCTT against Taar6, for which the z-score was inactive: -0.0022.

As to CGGCGAGUUCAGAAACAGCTT against Dab2ip, the z-score was inactive: 0.363.

On to GGAGUCACCAGACUUGUGUTT against Svs3b, for which the z-score is inactive: 0.637.

Consider GGUCAACACCUUAGAAACUTT against Lyn, for which the z-score was inactive: -0.928.

Turning to CCUACUGGAAAAGAUAAUUTT against Stfa1, the z-score was inactive: 1.82.

GCCCUCCGAGAAAAACAUCTT against Gjb5: the z-score is active: 2.05.

With GGUUAUUAUGUGUUUGACUTT against Atxn7, the z-score was inactive: 0.769.

GAGCUUUUCGCCAGAAGUGTT against Tcstv3: the z-score was inactive: -0.905.

For the sequence GGUAAGGGUAAAGAUUCUUTT against Pgk2, the z-score is inactive: 0.249.

Take CCGACUUGAGGUUUCAAAGTT against H3f3b: the z-score was inactive: -0.74.

For GCCAAAUGCGUUAUCAAUGTT against Gpd2, the z-score was inactive: 1.3.

CCUCAUCGAUGCACUACCCTT against Lrfn4: the z-score is inactive: -0.338.

Regarding GGCAAAUCCCGUUUCCAGATT against Hspb3, the z-score is inactive: 0.325.

As to GGCACGUCUGGACAACAUCTT against Cd22, the z-score is inactive: -0.707.

Take CGCGAUUCUGGAUGAGAACTT against Cacnb3: the z-score is inactive: 0.6.

For the sequence “GGAAAUACGACAACAGCCATT against 2700097O09Rik”, the z-score is inactive: -0.383.

GGAUGUGUCAGAAAAGUUATT against Lars2: the z-score is inactive: 0.641.

Regarding GGUGGAUCUUCCUCAAAGUTT against Sharpin, the z-score was inactive: -1.89.

With GCAGGAUCCUGAAACCAUGTT against Lrrc14, the z-score was active: -2.09.

For CCGUAAGGAUGAAGAGAUATT against Casp8ap2, the z-score is inactive: -0.966.

With CCUUCAACAGAUCUAGAGUTT against Rexo1, the z-score is active: 2.36.

As for GGCAAAAAGACUUUGAUAUTT against Dnajc1, the z-score was inactive: 0.405.

Regarding GGCCAUUGCUCAAUGGAAGTT against Rtp2, the z-score was inactive: 0.094.

On to GGAUGGGAAGACUACCCGATT against Camta2, for which the z-score was active: -2.62.

For CCGACAUUUUCGUCACCAGTT against Gabra1, the z-score was inactive: -1.

Regarding GCCUAAACAAGCCGAUGUGTT against Gap43, the z-score was inactive: 0.837.

As for GGUGCUGACUGACAAAGAATT against Tnfaip1, the z-score was inactive: 1.05.

With CCGUUCACAUGCAUCACUGTT against Olfr1378, the z-score is inactive: 0.0824.

Consider CCAAGAGACCUUUGGACGATT against Tgfbrap1, for which the z-score was inactive: 0.606.

GGAAAUGAAGCUAGUUUAATT against Usp38: the z-score was inactive: 0.944.

As for GCGUGCUGGUUUUCUGAUUTT against Sbno2, the z-score is inactive: 0.333.

With GGGACAUGUUUUGAUAAAGTT against Yy1, the z-score is inactive: -0.591.

GAACCAGACUAAGAACUGUTT against Cox6b1: the z-score was active: 5.31.

As for GGCCAUGGAGAACAUAUGCTT against Trpm8, the z-score was active: -2.09.

For the sequence GGUAUUCAUAAGAACACAGTT against Plin4, the z-score was inactive: -0.644.

Take GGAGUGUGUGCUGUCAGAATT against Nr1h3: the z-score was inactive: 0.717.

Take GUUGUGGUAUCUUGGGCAGTT against Olfr1217: the z-score is inactive: 1.81.

In the case of GGAUUAUUACAUCGAGCUUTT against Idi1, the z-score was inactive: -0.155.

In the case of GGCAUUGAAUUUGACUGGATT against Tmem147, the z-score was inactive: 0.691.

Turning to GCUUACUUUGGAACACAAATT against Tex18, the z-score was inactive: 1.22.

As for GCUAUACGCUCAAGCUAAATT against Fbxl8, the z-score is inactive: 0.2.

In the case of GGAUCUUUGAUAGUUGAGATT against Hspd1, the z-score is inactive: 0.0307.

Take CGAUCCUCAUCUUUAUAUATT against Agbl1: the z-score is inactive: -0.33.

As to CCACGGUUUCAUUUACUAATT against Tm7sf3, the z-score is inactive: 0.142.

On to CCACAUGAUGUAAAACUUATT against P4ha1, for which the z-score is inactive: 0.52.

With GGUUAUGGUAUUAACAGGUTT against Slc17a4, the z-score was inactive: 0.112.

As for GGCCUUCAAUCACCUAGAGTT against Pde6g, the z-score was inactive: -0.891.

As for GGAGUUUUAUGGACGAGGATT against Nenf, the z-score was inactive: -0.319.

Consider GCAGUAUGAGGUAAAUUAUTT against Amer3, for which the z-score was inactive: 1.05.

As for GGGAGACAACCAAAGUGAATT against Cngb3, the z-score is inactive: -0.525.

For “GGCCUUCACUAAGAGACGATT against C130073F10Rik”, the z-score was inactive: -0.0402.

For “GGUACUGUGUUCUGUCUGCTT against B230325K18Rik”, the z-score was inactive: 0.884.

CCCUUGUCUAAAAUAUACATT against Zfp941: the z-score was inactive: -0.387.

Take CCAUUAUGAGUGUGUUAAATT against Npc1: the z-score was inactive: 0.84.

In the case of GGAGGUAGGAAAGUGGAUCTT against Gdi1, the z-score was inactive: -0.658.

On to CCCAUGGAUUGGCAAGUUGTT against Sat1, for which the z-score is inactive: -0.397.

On to GGGCAUAUGAUAAUCAUACTT against Shpk, for which the z-score is inactive: -1.01.

For the sequence CCCAAACGUGGAAGGACCUTT against Sgk2, the z-score is inactive: -0.127.

GGGUCUUUGUCAGACAAGCTT against Sftpc: the z-score is inactive: 0.107.

On to GGUUUUGGUAUCUCCAUGGTT against Olfr2, for which the z-score was inactive: -0.48.

On to CCAUGCUAUUCUGGUUUCATT against Tas2r138, for which the z-score was inactive: 0.256.

Turning to GCUCAGACCGUGAUUGUAUTT against Chchd10, the z-score was inactive: -1.36.

Turning to GCAAGACUGAAAAUCCUGATT against Timm8a2, the z-score was inactive: -1.2.

On to CCCUUGAGUCAUUCUCUAATT against Gsto1, for which the z-score was inactive: 0.0391.

Consider CCAUACGAAAAAAACUGUCTT against Nfasc, for which the z-score was inactive: -0.5.

In the case of CGAAAUCGCGUUAUUUUCUTT against Rora, the z-score was inactive: 1.21.

In the case of GUGCAAGGUGUAUGAAUCUTT against Cldn5, the z-score was inactive: 1.29.

Turning to GCUGUUAGACCUCUUGAUUTT against Olfr1164, the z-score is inactive: 0.0632.

Take GGUUGUAGAUAUUUCAGACTT against Xiap: the z-score was inactive: 0.444.

In the case of ACAGGUACACUUCUUUGUGTT against Ccdc149, the z-score is inactive: -1.84.

For the sequence GCUUACCUAACUCUUAAACTT against Adgrg6, the z-score was inactive: 0.427.

As to GGCACGGUGGUGAUAACUUTT against C5ar2, the z-score is inactive: 1.12.

As for GGUCUCUUUCAUGCUCGCATT against Agr3, the z-score is active: 3.06.

Consider GCGGCUAAUUUGCACUCGUTT against Jtb, for which the z-score is inactive: 1.45.

Turning to GCCCUCCUAUAUCGUAUGGTT against Fbxw14, the z-score was inactive: -0.164.

For GGGUUAUCUCUUAAUGGCATT against Fundc1, the z-score was inactive: -0.185.

As to GCAGCUACUACACCAACCATT against Dlx2, the z-score is active: -2.46.

Consider CCUUUGGCAACAUCGUUUATT against Arrdc4, for which the z-score was inactive: 0.862.

On to GUUGUCAAGAGAUACAUGUTT against Ugt2b37, for which the z-score was inactive: 0.378.

Regarding GGAACAUCCAUGUAUUCAATT against Ube2l3, the z-score is inactive: 0.76.

GGUCAUGUUUGGUUAGAAGTT against Immp1l: the z-score is inactive: -0.748.

As for GGGACCACCUUGAACACUATT against Slc52a3, the z-score was inactive: 1.81.

With GGCAGUCUUGUCCCUUGUATT against Myl12a, the z-score is inactive: -0.74.

CCUAUAAAUGUCCUUAGUCTT against Ccdc115: the z-score is inactive: 0.127.

Turning to GCAACCUAUUUGUCUCUAUTT against Trhde, the z-score is inactive: 1.02.

Take GGACAGCAUGAUCCUACAATT against Smr2: the z-score is inactive: -0.962.

With GCUACAACCUUGAGAAACUTT against Duoxa2, the z-score is inactive: 0.706.

For CCUCACUGGUACAAUCCCATT against Tsg101, the z-score is inactive: -0.906.
